This is one part of the list. Repeats are few or missing, and single values can be far off.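 Imaging used 1,536-well plates; nuclei positive for cleaved PARP by antibody were divided by total DNA-stained nuclei to yield the apoptosis fraction. Doses for screening kept most cells viable, and cell lines differ markedly in resting and induced cleaved-PARP levels.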
How the values were obtained:
Assay in all cases: cleaved PARP positive nuclei fraction relative to DMSO control; melanoma cells; higher = more apoptosis
Details in all cases: library dose: low library concentration; 72 h
WM115 = system: WM115
WM1716 = system: WM1716
WM1745 = system: WM1745
WM3526 = system: WM3526
WM3619 = system: WM3619
WM451Lu = system: WM451Lu

SMILES | cleaved PARP positive nuclei fraction (WM115) | cleaved PARP positive nuclei fraction (WM1716) | cleaved PARP positive nuclei fraction (WM1745) | cleaved PARP positive nuclei fraction (WM3526) | cleaved PARP positive nuclei fraction (WM3619) | cleaved PARP positive nuclei fraction (WM451Lu)
O=C(/C=C/c1cccnc1)NCCCCC1CCN(C(=O)c2ccccc2)CC1 + Cc1cc(N2CCOCC2)cc2[nH]c(-c3c(NC[C@@H](O)c4cccc(Cl)c4)cc[nH]c3=O)nc12 [BMS536924] (first compound 0.01 µM, partner dose 0.2 µM) | 262% | 160% | 105% | 71.1% | 125% | 233%
Cc1cn(-c2cc(NC(=O)c3ccc(C)c(Nc4nccc(-c5cccnc5)n4)c3)cc(C(F)(F)F)c2)cn1 [nilotinib] + C=CCn1c(=O)c2cnc(Nc3ccc(N4CCN(C)CC4)cc3)nc2n1-c1cccc(C(C)(C)O)n1 [MK1775] (first compound 0.2 µM, partner dose 0.02 µM) | 214% | 35.8% | 110% | 60.7% | 94.7% | 146%
Cc1ccc(Nc2nccc(N(C)c3ccc4c(C)n(C)nc4c3)n2)cc1S(N)(=O)=O [Pazopanib] + OCc1c[nH]c2ccccc12 [Indole-3-carbinol] (first compound 0.4 µM, partner dose 0.8 µM) | 91% | 162% | 105% | 42.2% | 99.7% | 46.2%
CCCCCCCCCCCCCCCCCCOP(=O)([O-])OC1CC[N+](C)(C)CC1 [Perifosine] + CC(=O)O[C@@]12CO[C@@H]1C[C@H](O)[C@@]1(C)C(=O)[C@H](O)C3=C(C)[C@@H](OC(=O)[C@H](O)[C@@H](NC(=O)OC(C)(C)C)c4ccccc4)C[C@@](O)([C@@H](OC(=O)c4ccccc4)[C@H]21)C3(C)C [Docetaxel] (first compound 0.4 µM, partner dose 0.0001 µM) | 212% | 267% | 172% | 259% | 131% | 109%
CC[C@]1(O)C[C@H]2CN(CCc3c([nH]c4ccccc34)[C@@](C(=O)OC)(c3cc4c(cc3OC)N(C=O)[C@H]3[C@@](O)(C(=O)OC)[C@H](OC(C)=O)[C@]5(CC)C=CCN6CC[C@]43[C@@H]65)C2)C1 [vincristine] + CCCCCCCCc1ccc(CCC(N)(CO)CO)cc1 [fingolimod] (first compound 0.0001 µM, partner dose 2 µM) | 1010% | 396% | 144% | 74.9% | 204% | 67.9%
CC[C@]1(O)C[C@H]2CN(CCc3c([nH]c4ccccc34)[C@@](C(=O)OC)(c3cc4c(cc3OC)N(C=O)[C@H]3[C@@](O)(C(=O)OC)[C@H](OC(C)=O)[C@]5(CC)C=CCN6CC[C@]43[C@@H]65)C2)C1 [vincristine] + COc1ccc(C2=N[C@@H](c3ccc(Cl)cc3)[C@@H](c3ccc(Cl)cc3)N2C(=O)N2CCNC(=O)C2)c(OC(C)C)c1 [Nutlin-3] (first compound 0.0001 µM, partner dose 0.1 µM) | 1950% | 181% | 135% | 69.5% | 209% | 166%
CC[C@]1(O)C[C@H]2CN(CCc3c([nH]c4ccccc34)[C@@](C(=O)OC)(c3cc4c(cc3OC)N(C=O)[C@H]3[C@@](O)(C(=O)OC)[C@H](OC(C)=O)[C@]5(CC)C=CCN6CC[C@]43[C@@H]65)C2)C1 [vincristine] + Cc1cc(N2CCOCC2)cc2[nH]c(-c3c(NC[C@@H](O)c4cccc(Cl)c4)cc[nH]c3=O)nc12 [BMS536924] (first compound 0.0001 µM, partner dose 0.2 µM) | 1020% | 636% | 123% | 289% | 178% | 1100%
O=C(/C=C/c1cccnc1)NCCCCC1CCN(C(=O)c2ccccc2)CC1 + Cc1cc([N+](=O)[O-])ccc1NS(=O)(=O)c1cc(Cl)ccc1Cl [FH535] (first compound 0.01 µM, partner dose 1 µM) | 57.4% | 263% | 180% | 69.7% | 87.6% | 99.1%
Cc1cn(-c2cc(NC(=O)c3ccc(C)c(Nc4nccc(-c5cccnc5)n4)c3)cc(C(F)(F)F)c2)cn1 [nilotinib] + N#Cc1c(O)c2c(-c3ccc(-c4ccccc4O)cc3)csc2[nH]c1=O [A769662] (first compound 0.2 µM, partner dose 2 µM) | 146% | 23.1% | 87.3% | 81.5% | 82.6% | 258%
COc1cc([C@@H]2c3cc4c(cc3[C@@H](O[C@@H]3O[C@@H]5CO[C@@H](C)O[C@H]5[C@H](O)[C@H]3O)[C@H]3COC(=O)[C@H]23)OCO4)cc(OC)c1O [etoposide] + CN(C)S(=O)(=O)c1ccc2c(c1)/C(=C/c1cc3c([nH]1)CCCC3)C(=O)N2 [SU6656] (first compound 0.02 µM, partner dose 0.4 µM) | 67.7% | 124% | 76.8% | 36.1% | 106% | 19.9%
Cc1cc(Nc2cc(N3CCN(C)CC3)nc(Sc3ccc(NC(=O)C4CC4)cc3)n2)n[nH]1 [Tozasertib] + Cn1sc(=O)n(Cc2ccccc2)c1=O [TDZD-8] (first compound 0.006 µM, partner dose 0.4 µM) | 112% | 61.6% | 102% | 45.6% | 85% | 27.3%
Cc1ccc(Nc2nccc(N(C)c3ccc4c(C)n(C)nc4c3)n2)cc1S(N)(=O)=O [Pazopanib] + C[C@]1(c2nc3c(C(N)=O)cccc3[nH]2)CCCN1 [Veliparib] (first compound 0.4 µM, partner dose 1.4 µM) | 91.8% | 278% | 89.5% | 315% | 80.7% | 65%

Full records from above:
CC[C@]1(O)C[C@H]2CN(CCc3c([nH]c4ccccc34)[C@@](C(=O)OC)(c3cc4c(cc3OC)N(C=O)[C@H]3[C@@](O)(C(=O)OC)[C@H](OC(C)=O)[C@]5(CC)C=CCN6CC[C@]43[C@@H]65)C2)C1 [vincristine] + CCCCCCCCc1ccc(CCC(N)(CO)CO)cc1 [fingolimod] (first compound 0.0001 µM, partner dose 2 µM) in the list: cleaved PARP positive nuclei fraction (WM115): 1010%; cleaved PARP positive nuclei fraction (WM1716): 396%; cleaved PARP positive nuclei fraction (WM1745): 144%; cleaved PARP positive nuclei fraction (WM3526): 74.9%; cleaved PARP positive nuclei fraction (WM3619): 204%; cleaved PARP positive nuclei fraction (WM451Lu): 67.9%
Cc1ccc(Nc2nccc(N(C)c3ccc4c(C)n(C)nc4c3)n2)cc1S(N)(=O)=O [Pazopanib] + OCc1c[nH]c2ccccc12 [Indole-3-carbinol] (first compound 0.4 µM, partner dose 0.8 µM) in the list: cleaved PARP positive nuclei fraction (WM115): 91%; cleaved PARP positive nuclei fraction (WM1716): 162%; cleaved PARP positive nuclei fraction (WM1745): 105%; cleaved PARP positive nuclei fraction (WM3526): 42.2%; cleaved PARP positive nuclei fraction (WM3619): 99.7%; cleaved PARP positive nuclei fraction (WM451Lu): 46.2%

From the supplement of paper PMC4604168 (melanoma cell lines)
